The record followed here is PubChem BioAssay AID330 (DTP/NCI, 2004).

The list does not hold the whole screen: it is rich in T/C values a quarter to a half above the control, in often repeated tests (any T/C) and in doses without a T/C. Further doses and runs are listed elsewhere. T/C: endpoint of the treated group in % of that of the vehicle group. Some entries give survivors of the animals treated and no T/C: the source files T/C as zero there, which appears to mark a toxic dose or a test without result, not a measured value. Some doses without a T/C left all or most animals alive at the check, yet need not have been tolerated: survival well below the control is almost never listed, so the zero probably covers shortened survival too. Survivors were counted at the toxicity check, usually on the fifth day, unless a day is given; later deaths do not show. Schedule codes are those of the source, read here as Q, the interval in days (D) or hours (H), X, the number of doses. Signs of the kind (2×) give the number of equal values in this list. Where survival is the endpoint, the PubChem record calls one and a half times the control and up active, and a quarter to a half above the control has no call in these data; cut-offs in other NCI protocols can differ. Some doses were run more than once; their values stand side by side, smallest first.

This test deals with P388 leukemia ip, CD2F1 mice, survival T/C. Briefly: NCI In Vivo Anticancer Drug Screen. Data for tumor model P388 Leukemia (intraperitoneal) in CD2F1 (CDF1) mice. As to conditions: T/C endpoint: median survival time, higher T/C = longer survival.
The mark [1] stands for this setting: dose: 100.0 mg/kg/injection, schedule: Q01DX009 (ip), vehicle: saline with Tween-80.
Where [2] appears, read: dose: 100.0 mg/kg/injection, schedule: Q04DX003 (ip), vehicle: saline with Tween-80.
Where [3] appears, read: dose: 200.0 mg/kg/injection, schedule: Q01DX009 (ip), vehicle: saline with Tween-80.
[4] abbreviates: dose: 200.0 mg/kg/injection, schedule: Q04DX003 (ip), vehicle: saline with Tween-80.

As to `Cc1[nH]c2cc(Br)ccc2c1/C=N/NC(N)=S`, the survivor count is on record as 3 of 6 (dose: 200.0 mg/kg/injection, schedule: Q01DX001 (ip), vehicle: Klucel (hydroxypropylcellulose) (HPC)) and 1 of 6 (dose: 400.0 mg/kg/injection, schedule: Q01DX001 (ip), vehicle: Klucel (hydroxypropylcellulose) (HPC)).

In the case of `O=[N+]([O-])c1ccc(NN=NCCCl)cc1`, the T/C (dose: 25.0 mg/kg/injection, schedule: Q01DX009 (ip), vehicle: distilled water + Tween-80) is 128 % of control and the T/C (dose: 50.0 mg/kg/injection, schedule: Q01DX009 (ip), vehicle: distilled water + Tween-80) was 128 % of control. Also, the survivor count is reported as 5 of 5 (dose: 100.0 mg/kg/injection, schedule: Q01DX009 (ip), vehicle: distilled water + Tween-80) and 0 of 5 (dose: 200.0 mg/kg/injection, schedule: Q01DX009 (ip), vehicle: distilled water + Tween-80).

Regarding `CCC(=O)NC(Cc1ccsc1)C(=O)O` (stereo not given), for the setting “dose: 50.0 mg/kg/injection, schedule: Q01DX009 (ip), vehicle: saline”, the survivor count is listed as 6 of 6.

In the case of `COc1ccc2nc3cc(Cl)ccc3c(NCCCCN3CCCC3)c2n1`, the survivor count is, setting by setting: (dose: 50.0 mg/kg/injection, schedule: Q01DX009 (ip), vehicle: water) 4 of 6; (dose: 100.0 mg/kg/injection, schedule: Q01DX009 (ip), vehicle: water) 1 of 6; (dose: 200.0 mg/kg/injection, schedule: Q01DX009 (ip), vehicle: water) 1 of 6.

As for `CN(C)Cc1onc(-c2c(Cl)cccc2Cl)c1C(=O)O`, the survivor count (dose: 240.0 mg/kg/injection, schedule: Q01DX005 (ip), vehicle: saline with Tween-80) is 0 of 6.

Regarding `CC1(C)CC(C)(C)[P+]1(C)c1ccccc1`, the survivor count (dose: 100.0 mg/kg/injection, schedule: Q01DX001 (ip), vehicle: saline) is listed as 0 of 6.

On to `NC(CSCc1ccc(N(CCCl)CCCl)cc1)C(=O)O` (stereo not given), for which the T/C is 140 % of control (dose: 12.5 mg/kg/injection, schedule: Q01DX009 (ip), vehicle: saline with Tween-80); 140 % of control (dose: 25.0 mg/kg/injection, schedule: Q01DX009 (ip), vehicle: saline with Tween-80); 141 % of control under setting [2]; 145 % of control under setting [4]; 141 % of control (dose: 400.0 mg/kg/injection, schedule: Q04DX003 (ip), vehicle: saline with Tween-80). Further, the survivor count is, setting by setting: under setting [1], 6 of 6; (dose: 132.0 mg/kg/injection, schedule: Q04DX003 (ip), vehicle: saline with Tween-80) 5 of 6; under setting [3], 1 of 6; under setting [4], 6 of 6; (dose: 300.0 mg/kg/injection, schedule: Q04DX003 (ip), vehicle: saline with Tween-80) 6 of 6; (dose: 400.0 mg/kg/injection, schedule: Q01DX009 (ip), vehicle: saline with Tween-80) 1 of 6.

Take `COC(=O)c1nnn(Cc2ccccc2)c1Cl`: the survivor count (dose: 50.0 mg/kg/injection, schedule: Q01DX005 (ip), vehicle: Klucel (hydroxypropylcellulose) (HPC)) was 4 of 6.

In the case of `CCC1=C[C@H]2CN(CCc3c([nH]c4ccccc34)[C@@](OC(C)=O)(c3cc4c(cc3OC)N(C)[C@H]3[C@@](O)(C(=O)NCCSc5ccccc5)[C@H](O)[C@]5(CC)C=CCN6CC[C@]43[C@@H]65)C2)C1`, the T/C is, setting by setting: (dose: 1.0 mg/kg/injection, schedule: Q01DX001 (ip), vehicle: water) 125 % of control; (dose: 2.0 mg/kg/injection, schedule: Q01DX001 (ip), vehicle: water) 128 % of control; (dose: 4.0 mg/kg/injection, schedule: Q01DX001 (ip), vehicle: water) 136 and 145 % of control; (dose: 8.0 mg/kg/injection, schedule: Q01DX001 (ip), vehicle: water) 141 % of control. Besides, the survivor count (dose: 32.0 mg/kg/injection, schedule: Q01DX001 (ip), vehicle: water) is 3 of 6.

Turning to `COC(=O)/C=C(\I)C(=O)OC`, the survivor count runs as follows: (dose: 50.0 mg/kg/injection, schedule: Q01DX009 (ip), vehicle: saline with Tween-80) 0 of 6; under setting [1], 0 of 6; under setting [3], 0 of 6.

As for `CCN(CC)CCOc1cccc2c1C(=O)c1c(O)cccc1C2=O`, the T/C under setting [1] was 140 % of control. Also, under setting [3], the survivor count is listed as 4 of 6.

Regarding `CC(C)(C)C1CC=CCC1` (stereo not given), the survivor count (dose: 200.0 mg/kg/injection, schedule: Q01DX009 (ip), vehicle: saline sonified) is 4 of 6.

In the case of `CC(=O)NN=Nc1ccc(C)cc1`, the survivor count (dose: 200.0 mg/kg/injection, schedule: Q01DX005 (ip), vehicle: Klucel (hydroxypropylcellulose) (HPC)) was 3 of 6.

Turning to `CC(=O)Nc1ccc(Sc2ncc([N+](=O)[O-])s2)cc1`, the survivor count (dose: 200.0 mg/kg/injection, schedule: Q01DX009 (ip), vehicle: Klucel (hydroxypropylcellulose) (HPC)) is recorded as 0 of 6.

As for `CN(Cc1cccc2ccccc12)Cc1cccc2ccccc12`, the survivor count (dose: 200.0 mg/kg/injection, schedule: Q01DX005 (ip), vehicle: saline with Tween-80) is on record as 5 of 5.

As to `CCCCN(CCCC)CCCNc1nccc2ccccc12`, the survivor count (dose: 50.0 mg/kg/injection, schedule: Q01DX005 (ip), vehicle: saline) was 0 of 6; the survivor count (dose: 100.0 mg/kg/injection, schedule: Q01DX005 (ip), vehicle: saline) is on record as 0 of 6; the survivor count (dose: 200.0 mg/kg/injection, schedule: Q01DX005 (ip), vehicle: saline) is recorded as 0 of 6.

With `OC1(O)/C=C\CCCCC/C=C\1`, where the note is “dose: 50.0 mg/kg/injection, schedule: Q01DX005 (ip), vehicle: saline with Tween-80”, the survivor count is 3 of 5.

On to `CCOC1=NC(C)C(C)N1` (stereo not given), for which the survivor count is, setting by setting: (dose: 200.0 mg/kg/injection, schedule: Q01DX001 (ip), vehicle: saline) 0 of 6; (dose: 400.0 mg/kg/injection, schedule: Q01DX001 (ip), vehicle: saline) 0 of 6.

`c1cc(-c2cc3ccc(C4=NCCN4)cc3[nH]2)ccc1C1=NCCN1`: the T/C (dose: 12.5 mg/kg/injection, schedule: Q04DX003 (ip), vehicle: saline) was 148 % of control and the T/C (dose: 25.0 mg/kg/injection, schedule: Q04DX003 (ip), vehicle: saline) was 139 % of control. For the setting “dose: 100.0 mg/kg/injection, schedule: Q04DX003 (ip), vehicle: saline”, the survivor count is 4 of 6.

Regarding `COc1c2ccoc2nc2c(O)c3c(c(CC=C(C)C)c12)OCO3`, the survivor count (dose: 23.75 mg/kg/injection, schedule: Q01DX005 (ip), vehicle: Klucel (hydroxypropylcellulose) (HPC)) is given as 5 of 5; the survivor count (dose: 95.0 mg/kg/injection, schedule: Q01DX005 (ip), vehicle: Klucel (hydroxypropylcellulose) (HPC)) is 5 of 5; the survivor count (dose: 190.0 mg/kg/injection, schedule: Q01DX005 (ip), vehicle: Klucel (hydroxypropylcellulose) (HPC)) is 5 of 5.

For the compound `O=C(Nc1ccc(Cl)cc1)Nc1nnc(-c2cccc(Cl)c2)o1`, the survivor count reads like this: (dose: 30.0 mg/kg/injection, schedule: Q01DX005 (ip), vehicle: saline with Tween-80) 6 of 6 (2×); (dose: 60.0 mg/kg/injection, schedule: Q01DX005 (ip), vehicle: saline with Tween-80) 6 of 6; (dose: 120.0 mg/kg/injection, schedule: Q01DX005 (ip), vehicle: saline with Tween-80) 6 of 6.

As for `CC1CCCC(C)N1NC1=NCCO1` (stereo not given), the survivor count under setting [2] is given as 3 of 6.

Regarding `N#Cc1cn(C2OC(CO)C(O)C2O)c2ncnc(N)c12` (stereo not given), the T/C is 126 % of control (dose: 0.07 mg/kg/injection, schedule: Q04DX003 (ip), vehicle: other) and 128 % of control (dose: 100.0 micrograms/kg/injection, schedule: Q04DX003 (ip), vehicle: other). Also, the survivor count is reported as 5 of 6 (dose: 0.45 mg/kg/injection, schedule: Q04DX003 (ip), vehicle: other); 6 of 6 (dose: 6.25 mg/kg/injection, schedule: Q04DX003 (ip), vehicle: saline with Tween-80); 0 of 6 (dose: 12.5 mg/kg/injection, schedule: Q04DX003 (ip), vehicle: saline with Tween-80); 1 of 6 (dose: 25.0 mg/kg/injection, schedule: Q04DX003 (ip), vehicle: saline with Tween-80).
